Article PMC9190012, “Heparin activation of protein Z-dependent protease inhibitor (ZPI) allosterically blocks protein Z activation through an extended heparin-binding site” (The Journal of Biological Chemistry, 2022)

B1: WT: recombinant wild-type protein Z-dependent protease inhibitor (serpin A10) expressed in Escherichia coli (protein, UniProt Q9UK55 22-444, looked up)
Protein Z-dependent protease …: LAPSPQSPETPAPQNQTSRVVQAPKEEEEDEQEASEEKASEEEKAWLMASRQQLAKETSNFGFSLLRKISMRHDGNMVFSPFGMSLAMTGLMLGATGPTETQIKRGLHLQALKPTKPGLLPSLFKGLRETLSRNLELGLTQGSFAFIHKDFDVKETFFNLSKRYFDTECVPMNFRNASQAKRLMNHYINKETRGKIPKLFDEINPETKLILVDYILFKGKWLTPFDPVFTEVDTFHLDKYKTIKVPMMYGAGKFASTFDKNFRCHVLKLPYQGNATMLVVLMEKMGDHLALEDYLTTDLVETWLRNMKTRNMEVFFPKFKLDQKYEMHELLRQMGIRRIFSPFADLSELSATGRNLQVSRVLQRTVIEVDERGTEAVAGILSEITAYSMPPVIKVDRPFHFMIYEETSGMLLFLGRVVNPTLL
B2: K104A/R105A/K113A/K116A/K125A/R128A: ZPI mutant of the six basic residues in the helix C/D site (protein, UniProt Q9UK55 22-444, looked up, variant K104A R105A K113A K116A K125A R128A)
Protein Z-dependent protease …: LAPSPQSPETPAPQNQTSRVVQAPKEEEEDEQEASEEKASEEEKAWLMASRQQLAKETSNFGFSLLRKISMRHDGNMVFSPFGMSLAMTGLMLGATGPTETQIAAGLHLQALAPTAPGLLPSLFAGLAETLSRNLELGLTQGSFAFIHKDFDVKETFFNLSKRYFDTECVPMNFRNASQAKRLMNHYINKETRGKIPKLFDEINPETKLILVDYILFKGKWLTPFDPVFTEVDTFHLDKYKTIKVPMMYGAGKFASTFDKNFRCHVLKLPYQGNATMLVVLMEKMGDHLALEDYLTTDLVETWLRNMKTRNMEVFFPKFKLDQKYEMHELLRQMGIRRIFSPFADLSELSATGRNLQVSRVLQRTVIEVDERGTEAVAGILSEITAYSMPPVIKVDRPFHFMIYEETSGMLLFLGRVVNPTLL
B3: K260A/R263A/R305A/K308A/R310A: ZPI helix H site quintuple mutant (protein, UniProt Q9UK55 22-444, looked up, variant K260A R263A R305A K308A R310A)
Protein Z-dependent protease …: LAPSPQSPETPAPQNQTSRVVQAPKEEEEDEQEASEEKASEEEKAWLMASRQQLAKETSNFGFSLLRKISMRHDGNMVFSPFGMSLAMTGLMLGATGPTETQIKRGLHLQALKPTKPGLLPSLFKGLRETLSRNLELGLTQGSFAFIHKDFDVKETFFNLSKRYFDTECVPMNFRNASQAKRLMNHYINKETRGKIPKLFDEINPETKLILVDYILFKGKWLTPFDPVFTEVDTFHLDKYKTIKVPMMYGAGKFASTFDANFACHVLKLPYQGNATMLVVLMEKMGDHLALEDYLTTDLVETWLANMATANMEVFFPKFKLDQKYEMHELLRQMGIRRIFSPFADLSELSATGRNLQVSRVLQRTVIEVDERGTEAVAGILSEITAYSMPPVIKVDRPFHFMIYEETSGMLLFLGRVVNPTLL
B4: K125A/R128A: ZPI mutant of helix D residues (protein, UniProt Q9UK55 22-444, looked up, variant K125A R128A)
Protein Z-dependent protease …: LAPSPQSPETPAPQNQTSRVVQAPKEEEEDEQEASEEKASEEEKAWLMASRQQLAKETSNFGFSLLRKISMRHDGNMVFSPFGMSLAMTGLMLGATGPTETQIKRGLHLQALKPTKPGLLPSLFAGLAETLSRNLELGLTQGSFAFIHKDFDVKETFFNLSKRYFDTECVPMNFRNASQAKRLMNHYINKETRGKIPKLFDEINPETKLILVDYILFKGKWLTPFDPVFTEVDTFHLDKYKTIKVPMMYGAGKFASTFDKNFRCHVLKLPYQGNATMLVVLMEKMGDHLALEDYLTTDLVETWLRNMKTRNMEVFFPKFKLDQKYEMHELLRQMGIRRIFSPFADLSELSATGRNLQVSRVLQRTVIEVDERGTEAVAGILSEITAYSMPPVIKVDRPFHFMIYEETSGMLLFLGRVVNPTLL

Test: Salt gradient elution of ZPI variants from HiTrap heparin column
Format: binding
Settings: gradient 0.2 to 0.55 M NaCl, pH 7.4; errors ±0.01 M

Row | Molecule | NaCl concentration required to elute protein from heparin-Sepharose
1 | B1 | 0.41 M
2 | B2 | 0.26 M
3 | B3 | 0.38 M
4 | B4 | 0.38 M

Test: Binding to heparin-Sepharose resin analyzed by SDS-PAGE and immunoblotting
Settings: 500 nM protein alone, 0.1 M NaCl, pH 7.4

Row | Molecule | binding to heparin-Sepharose
5 | PZ: human plasma protein Z, cofactor of ZPI, from Enzyme Research Laboratories | does not bind
6 | B1 | complete binding
